What all share (test): co-sedimentation
In assay [1] the target is Krr1 (wild type), second bait of the split-tag purification Utp23-Krr1 (S. cerevisiae) (UniProt P25586).
For assay [2], the target named is T1, protA-TEV-tagged Utp23 (S. cerevisiae) (UniProt Q12339).
T1 sequence: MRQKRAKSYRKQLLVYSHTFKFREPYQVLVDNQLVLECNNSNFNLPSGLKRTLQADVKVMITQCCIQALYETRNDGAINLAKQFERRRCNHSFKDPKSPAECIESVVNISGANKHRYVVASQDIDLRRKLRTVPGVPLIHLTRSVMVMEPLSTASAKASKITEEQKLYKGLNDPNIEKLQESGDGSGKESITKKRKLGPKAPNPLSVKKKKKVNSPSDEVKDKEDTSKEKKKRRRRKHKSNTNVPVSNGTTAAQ

Amino acid sequences for entries named in this document (tags omitted). A change or cut given only in a name is not applied to a line headed by its entry. Residues count along the entry.
UniProt P25586: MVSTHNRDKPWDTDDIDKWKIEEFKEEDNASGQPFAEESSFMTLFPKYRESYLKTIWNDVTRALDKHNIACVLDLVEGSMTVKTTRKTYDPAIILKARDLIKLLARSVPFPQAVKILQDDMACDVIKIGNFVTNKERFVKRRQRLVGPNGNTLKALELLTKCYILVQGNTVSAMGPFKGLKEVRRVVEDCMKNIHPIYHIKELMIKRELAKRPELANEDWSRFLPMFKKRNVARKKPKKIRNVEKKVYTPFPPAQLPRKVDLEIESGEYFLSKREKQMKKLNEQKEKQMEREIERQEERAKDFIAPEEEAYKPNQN
Krr1ΔC3-FLAG: residues 1-247 of P25586
UniProt P33322: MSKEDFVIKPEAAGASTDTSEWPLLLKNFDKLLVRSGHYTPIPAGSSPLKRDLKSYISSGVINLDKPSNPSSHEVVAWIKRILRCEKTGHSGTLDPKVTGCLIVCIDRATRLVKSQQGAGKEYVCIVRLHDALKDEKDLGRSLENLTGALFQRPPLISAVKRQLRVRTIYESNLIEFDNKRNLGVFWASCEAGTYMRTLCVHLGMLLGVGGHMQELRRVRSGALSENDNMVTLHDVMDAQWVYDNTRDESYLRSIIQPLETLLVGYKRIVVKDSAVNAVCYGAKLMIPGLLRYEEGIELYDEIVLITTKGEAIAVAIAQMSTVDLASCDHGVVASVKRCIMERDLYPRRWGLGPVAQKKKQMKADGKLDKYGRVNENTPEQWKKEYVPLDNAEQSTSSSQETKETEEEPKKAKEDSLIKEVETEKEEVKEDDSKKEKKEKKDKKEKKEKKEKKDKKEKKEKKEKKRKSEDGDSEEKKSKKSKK
UniProt P05756: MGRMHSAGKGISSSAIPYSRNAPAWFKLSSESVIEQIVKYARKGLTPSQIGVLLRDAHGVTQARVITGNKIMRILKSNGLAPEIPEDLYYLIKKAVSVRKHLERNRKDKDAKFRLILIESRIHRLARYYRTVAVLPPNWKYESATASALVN

For assay [3], the target named is Krr1ΔC3-FLAG (S. cerevisiae) (UniProt P25586).

Results are given in words; binding and its absence hold for the method and conditions named. In cells and extracts the contact can be indirect. Some entries that bind do so weakly or less than the wild type. For some assays here: Sequences can lack the tags named with a protein.

Experimental findings from doi:10.1101/2024.09.05.611419 are described below.

On to “Cbf5 (from UniProt P33322 1-483) (enzyme)”, for which the binding result in assay [1], in assay [2] and in assay [3] was “binds” in each case.

For the molecule “ribosomal protein uS15 (Rps13) (from UniProt P05756 1-151)”, the binding entry in assay [2] is given as “binds”.

B1: Nop9 (protein, UniProt P47077 1-666)
chain: MGKTKTRGRRHQDKQRKDEFEPSSNSAKEHIQQEESTYNDEAEIKETQPQMFFGVLDREELEYFKQAESTLQLDAFEAPEEKFQFVTSIIEEAKGKELKLVTSQITSKLMERVILECDETQLKDIFQSFNGVFFGLSCHKYASHVLETLFVRSAALVERELLTPSFDNNEKEGPYVTMENMFLFMLNELKPHLKTMMNHQYASHVLRLLILILSSKTLPNSTKANSTLRSKKSKIARKMIDIKDNDDFNKVYQTPESFKSELRDIITTLYKGFTNGAESRSDISQSTITKFREYSVDKVASPVIQLIIQVEGIFDRDRSFWRLVFNTADEKDPKEESFLEYLLSDPVGSHFLENVIGSARLKYVERLYRLYMKDRIVKLAKRDTTGAFVVRALLEHLKEKDVKQILDAVVPELSMLLNSNMDFGTAIINASNKQGGYLRDDVIAQLIQKYYPEKSDAKNILESCLLLSASTLGNTRDDWPTAEERRRSVFLEQLIDYDDKFLNITIDSMLALPEERLIQMCYHGVFSHVVEHVLQTTRVDIIKRKMLLNILSKESVNLACNVYGSHIMDKLWEFTAKLTLYKERIARALVLETEKVKNSIYGRQVWKNWKLELYVRKMWDWKKLIKEQEFEIFPNSKPLQPKPEKHSRERNNSKEGSAFKKQKHYR
As to B1, the binding entry in assay [1] and in assay [2] was “binds” each time.

B2: Gar1 (protein, UniProt P28007 1-205)
chain: MSFRGGNRGGRGGFRGGFRGGRTGSARSFQQGPPDTVLEMGAFLHPCEGDIVCRSINTKIPYFNAPIYLENKTQVGKVDEILGPLNEVFFTIKCGDGVQATSFKEGDKFYIAADKLLPIERFLPKPKVVGPPKPKNKKKRSGAPGGRGGASMGRGGSRGGFRGGRGGSSFRGGRGGSSFRGGSRGGSFRGGSRGGSRGGFRGGRR
For the molecule B2, the binding result in assay [2] was “binds”.

B3: Dhr1 (protein, UniProt Q04217 1-1267)
chain: MGTYRKRFNEKARSGHMAKLKELKRIRNKQFTRQDENDERVENPDSAPAESSTTEPNANAEILEPLTEEEKKMKKRKLQELFTPKESKVSRLKKKRLDKFIEHQLKREERKTIIGKLQDYKIDTSLLTSSKRLGEGRQTKKEEFKEALSLERQGRGNEQTNEILYEEYEPKVWDEYGEGGSSEDDDGEDDFEASFGSMPKPTDNEEKKSSGFIDHRPAKFGGSGLSFGFSNIKVINKESKTPKKKYNWRQRVEMEELKKHGKEDEMDFDTTSEDDDEEEDQEEEDKMHPSENPLEEVESADSETGSEKFDQNDVANEFKDWANQEIKKLEGRDQELVTPTLNIDYKPIIRKEDLDDGLQEAYVPINENSTRKAFYVEVSRSDEIQKARIQLPVFGEEHKIMEAIHHNDVVIICGETGSGKTTQVPQFLYEAGFGAEDSPDYPGMVGITQPRRVAAVSMAERVANELGDHGHKVGYQIRFDSTAKEDTKVKFMTDGVLLREMMHDFKLTKYSSIIIDEAHERNINTDILIGMLSRCVRLRAKLHKENPIEHKKLKLIIMSATLRVSDFSENKTLFPIAPPVLQVDARQFPVSIHFNRRTAFNYTDEAFRKTCKIHQKLPPGAILVFLTGQQEITHMVKRLRKEFPFKKNSKYNKDLETPVSKMGINSKTTDLEAEDIDFSVQVIDQDKFKSAIRYEEDEGNSGNGEDEEDEEEEGFEEVLTEGQTANDPLYVLPLYSLLPTKEQMRVFQKPPQGSRLCIVATNVAETSLTIPGVRYVVDSGRSKERKYNESNGVQSFEVGWVSKASANQRSGRAGRTGPGHCYRLYSSAVFEHDFEQFSKPEILRMPVESIVLQMKSMAIHNIINFPFPTPPDRVALSKAIQLLQYLGALDNKEMITEDGKKMSLFPLSPRFSKMLLVSDEKACLPYIVAIVSALSVGDPFINEFELGINEISRKPNPDENLDDKIREHDESTPGMDPELKKELRSKFYKSRSQFSKLDKFSDVFRLLSVVSAMDYVPKEQKEIFMKKNFLRGKLMEEIVKLRKQLMYIIKSNTSKENIAVVIRNEDLKSDIPSVIQIKLLKQMICAGFVDHVAVRADVLFPDDAKITNRTSIINIPYIPVLATRTPNIEDCFVYIHPTSILNNLGEMPPKYMLYYSLHLGGNNKTRMNTLCDIASTPLANIARKGLLLTYSKPLTGQGLKTVNLSPTERYCYVVPRFGSTVDNDLKIGWDLNPIAVHQKKQKGQWTVIKFITRKGFQTITGEEKEKK
For B3, in assay [3], the binding entry is given as “binds”.
